{"source": "the supplement of paper PMC6411743", "note": "± gives the standard deviation of the averaged measurements. This is one part of the list.", "data": [{"compound": "Nc1nc2c(ncn2[C@@H]2O[C@H](COP(=O)(O)OP(=O)(O)OP(=O)(O)O)[C@@H](O)[C@H]2O)c(=O)[nH]1 [guanosine triphosphate]", "assay": "NP40-soluble protein abundance relative to vehicle (solubility fold change) (ratio); higher = more soluble protein in presence of GTP", "details": "concentration: 2mM", "in_short": "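In three independent experiments, Jurkat crude lysate made by Dounce homogenisation was treated for 10 min at room temperature and then 3 min at 37 °C with eight concentrations ranging from 0.1 to 10 mM. It was then solubilised with 0.8% NP40 plus benzonase for 60 min at 4 °C and ultracentrifuged. The supernatant was TMT-labelled for LC-MS/MS, and each value is the fold change against the detergent-processed vehicle for the same replicate, using vsn-normalised intensities.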", "values": [{"target": "UniProt P51157 and related entries", "NP40-soluble protein abundance": "0.966 ± 0.01"}, {"target": "UniProt P62195", "NP40-soluble protein abundance": "1.07 ± 0.17"}, {"target": "UniProt P62072", "NP40-soluble protein abundance": "1.03 ± 0.15"}, {"target": "UniProt P61081", "NP40-soluble protein abundance": "0.879 ± 0.049"}, {"target": "MPP1 (UniProt Q00013)", "NP40-soluble protein abundance": "0.9688 ± 0.0037"}, {"target": "UniProt P61160 and related entries", "NP40-soluble protein abundance": "0.969 ± 0.051"}, {"target": "UniProt P84090", "NP40-soluble protein abundance": "1.34 ± 0.11"}, {"target": "UniProt P57772 and related entries", "NP40-soluble protein abundance": "1.03 ± 0.049"}, {"target": "UniProt P61244 and related entries", "NP40-soluble protein abundance": "0.809 ± 0.019"}, {"target": "NOP14 (UniProt P78316)", "NP40-soluble protein abundance": "0.961 ± 0.056"}, {"target": "UniProt P61009", "NP40-soluble protein abundance": "0.922 ± 0.058"}, {"target": "UniProt P68371", "NP40-soluble protein abundance": "0.909 ± 0.11"}, {"target": "UniProt P61129", "NP40-soluble protein abundance": "0.907 ± 0.18"}, {"target": "UniProt P54578 and related entries", "NP40-soluble protein abundance": "0.922 ± 0.013"}, {"target": "UniProt P62857", "NP40-soluble protein abundance": "0.93 ± 0.1"}, {"target": "UniProt P61764 and related entries", "NP40-soluble protein abundance": "0.961 ± 0.061"}, {"target": "CDK6 (UniProt Q00534)", "NP40-soluble protein abundance": "0.895 ± 0.032"}, {"target": "UniProt P55199 and related entries", "NP40-soluble protein abundance": "1.01 ± 0.05"}, {"target": "NCBP2 (UniProt P52298)", "NP40-soluble protein abundance": "1.03 ± 0.084"}, {"target": "UniProt P98155 and related entries", "NP40-soluble protein abundance": "1.04 ± 0.08"}, {"target": "EIF5 (UniProt P55010)", "NP40-soluble protein abundance": "0.916 ± 0.089"}, {"target": "UniProt P52564", "NP40-soluble protein abundance": "0.938 ± 0.024"}, {"target": "UniProt P62253", "NP40-soluble protein abundance": "0.886 ± 0.086"}, {"target": "EIF6 (UniProt P56537)", "NP40-soluble protein abundance": "1.02 ± 0.035"}, {"target": "CPT1A (UniProt P50416)", "NP40-soluble protein abundance": "1.04 ± 0.13"}, {"target": "SEC61B (UniProt P60468)", "NP40-soluble protein abundance": "1.04 ± 0.12"}, {"target": "UniProt P55957 and related entries", "NP40-soluble protein abundance": "1.09 ± 0.029"}, {"target": "UniProt P61962", "NP40-soluble protein abundance": "1.04 ± 0.1"}, {"target": "UniProt P62314", "NP40-soluble protein abundance": "1.15 ± 0.18"}, {"target": "UniProt P82970 and related entries", "NP40-soluble protein abundance": "0.908 ± 0.018"}]}]}
